Results are given in words; binding and its absence hold for the method and conditions named. For part of these data: Binding calls can cover weak binding; strength is not graded here.
Tests used:
Experiment in all cases: two-hybrid; pairs of pDEST-AD and pDEST-DB vectors co-transformed into yeast strain AH109; growth on lower stringency plates, -HWL with 20 mM 3AT, after 6 days (Figure 6A; for AP1, mAP1 and FUL the text cites Figure 6 as a whole)
[1] = target: T1, … (PI) (Arabidopsis thaliana) (UniProt P48007)
T1 sequence: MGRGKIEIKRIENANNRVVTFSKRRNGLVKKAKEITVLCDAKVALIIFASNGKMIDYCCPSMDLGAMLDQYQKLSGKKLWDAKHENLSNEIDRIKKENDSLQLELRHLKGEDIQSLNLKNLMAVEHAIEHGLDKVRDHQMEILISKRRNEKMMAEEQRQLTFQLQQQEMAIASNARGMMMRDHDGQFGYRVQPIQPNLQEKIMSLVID

[2] = target: T2, APETALA3 (AP3) (Arabidopsis thaliana) (UniProt P35632)
T2 sequence: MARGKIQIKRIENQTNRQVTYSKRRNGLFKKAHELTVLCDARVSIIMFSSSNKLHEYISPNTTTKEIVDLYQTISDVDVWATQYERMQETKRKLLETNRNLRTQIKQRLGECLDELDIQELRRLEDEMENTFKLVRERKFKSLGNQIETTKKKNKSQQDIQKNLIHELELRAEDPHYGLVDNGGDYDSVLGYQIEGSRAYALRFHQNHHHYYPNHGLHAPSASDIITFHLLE

[3] = target: T3, AGAMOUS-LIKE 24 (AGL24) (Arabidopsis thaliana) (UniProt O82794)
T3 sequence: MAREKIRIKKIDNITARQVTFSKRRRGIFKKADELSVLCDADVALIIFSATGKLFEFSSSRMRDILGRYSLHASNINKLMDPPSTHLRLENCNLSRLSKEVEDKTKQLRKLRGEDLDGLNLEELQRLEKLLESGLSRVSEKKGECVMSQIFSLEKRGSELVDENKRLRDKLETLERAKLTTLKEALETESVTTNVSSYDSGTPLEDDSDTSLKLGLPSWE

Substance: tFUL (FUL truncated just before the FUL-like motif) (Arabidopsis thaliana) (domain or fragment)
- binding [1]: no binding
- binding [2]: no binding
- binding [3]: binds

— publication PMC4667048
